Reference: the supplement of paper PMC3334620
In all, about 33,000 sequences were measured (“E-score (-0.5 to 0.5)”: median about -8e-05, highest 2% from about 0.23 on). The list shows a part of the results.

Biological target: T1, Nrg2 (UniProt P38082)
T1 sequence: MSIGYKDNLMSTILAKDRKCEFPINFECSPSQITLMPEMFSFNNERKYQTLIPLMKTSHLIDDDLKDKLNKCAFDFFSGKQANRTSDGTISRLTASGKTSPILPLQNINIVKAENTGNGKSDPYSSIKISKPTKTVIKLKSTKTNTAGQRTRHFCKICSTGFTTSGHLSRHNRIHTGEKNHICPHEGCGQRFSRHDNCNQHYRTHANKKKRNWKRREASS
Assay: PBM E-score (8-mer binding enrichment) (E-score (-0.5 to 0.5)); higher = stronger / more preferred TF binding
Details: protein concentration: 100 nM; construct: GST-full length
Procedure, shortened: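 Detection of bound protein used fluorescent anti-GST, with scans normalised by masliner. The proteins were GST-tagged yeast transcription factors applied at about 100-200 nM to universal all-10-mer Agilent arrays made double-stranded by primer extension. Each ungapped eight-base word, pooled with its reverse complement, was scored with an E-score from the Universal PBM Analysis Suite.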

Row | Sequence | PBM E-score
1 | AAGTTGGA | 0.134
2 | ACATGTGG | 0.142
3 | GCCTTAAA | -0.0715
4 | ACGCCCAT | 0.0455
5 | CACTATTA | 0.132
6 | CATCAGAC | 0.119
7 | CGGTTTAA | -0.132
8 | CGTTAGGA | 0.0961
9 | GCAGAAAA | 0.139
10 | CCATGAGG | -0.0123
11 | CGATATTA | 0.23
12 | ACCCATGG | 0.084
13 | ATTACTGC | 0.214
14 | AGCTCCCA | -0.0291
15 | GTAGAGAA | 0.0653
16 | CCAACTAA | 0.0905
17 | AAAAACTC | -0.0343
18 | CCAGAATA | 0.127
19 | AACATCTA | -0.068
20 | ACCGTGCA | -0.0396
21 | CCACTTCA | 0.104
22 | CACGGTCC | -0.211
23 | ACCCTTCC | 0.107
24 | CAGATTCA | -0.172
25 | GTGGTAAA | -0.0868

Row | Sequence | PBM E-score
26 | GATTCTGC | 0.188
27 | ACTTCGGC | -0.0688
28 | ATCAAACG | 0.0157
29 | GCGATCGA | 0.186
30 | GCTAATTA | 0.101
31 | ATCCCGAT | 0.115
32 | ATTGAAAA | 0.199
33 | CTTGTGGC | -0.12
34 | ATTATAAT | 0.191
35 | ACCTCCGT | -0.0785
36 | GTACGTTA | -0.00038
37 | CACTTAAC | -0.104
38 | GGGTCTTA | 0.0557
39 | CACGGCAC | -0.238
40 | ACAATCAG | -0.0138
41 | ACGCCAGT | -0.0887
42 | ACCAACTC | -0.0268
43 | CCAGAAAC | 0.0115
44 | AGTCTAAA | -0.0551
45 | CTTATACC | 0.0334
46 | CTTCCGAC | -0.248
47 | GGGGCCCC | 0.267
48 | GTTTCGTA | 0.149
49 | AAGTTGCA | -0.0133
50 | AAGCGGCA | 0.044

Random excerpt: four entries already listed.
Row | Sequence | PBM E-score
39 | CACGGCAC | -0.238
38 | GGGTCTTA | 0.0557
36 | GTACGTTA | -0.00038
35 | ACCTCCGT | -0.0785

Remaining list, next part:

Row | Sequence | PBM E-score
51 | GAAGCAAA | -0.118
52 | AGTACGAT | 0.0669
53 | CGGGGCGA | -0.0348
54 | AACCCAAG | 0.0278
55 | CAGTAGGC | 0.00974
56 | TGTACGAA | 0.0242
57 | GTTATATA | 0.121
58 | CCGCGCGA | 0.202
59 | ATCAACTC | 0.0722
60 | CTCGAGAC | 0.205
61 | CTATCGGC | 0.0172
62 | CGTTGTGC | -0.00609
63 | AAGGCGAC | -0.0828
64 | ACGGCAGT | -0.217
65 | CACACTCG | 0.0824
66 | CAGCTGAC | 0.176
67 | GCAGGAGC | -0.234
68 | CACGTCGC | 0.00816
69 | ATCCACAA | -0.0455
70 | ATTCCTTC | 0.121
71 | GAGATATA | 0.0014
72 | AATACGGC | 0.084
73 | AGTTGTGA | 0.0643
74 | ACGAATAC | 0.101
75 | GGAAACAA | 0.105

A different layout for part of the listing above.
Row,Sequence,PBM E-score
5,CACTATTA,0.132
6,CATCAGAC,0.119
7,CGGTTTAA,-0.132
8,CGTTAGGA,0.0961
9,GCAGAAAA,0.139
10,CCATGAGG,-0.0123
11,CGATATTA,0.23
12,ACCCATGG,0.084
13,ATTACTGC,0.214
14,AGCTCCCA,-0.0291
15,GTAGAGAA,0.0653
16,CCAACTAA,0.0905
17,AAAAACTC,-0.0343
18,CCAGAATA,0.127
19,AACATCTA,-0.068
20,ACCGTGCA,-0.0396
21,CCACTTCA,0.104
22,CACGGTCC,-0.211
23,ACCCTTCC,0.107
24,CAGATTCA,-0.172
25,GTGGTAAA,-0.0868
26,GATTCTGC,0.188
27,ACTTCGGC,-0.0688
28,ATCAAACG,0.0157
29,GCGATCGA,0.186
30,GCTAATTA,0.101
31,ATCCCGAT,0.115
32,ATTGAAAA,0.199
33,CTTGTGGC,-0.12
34,ATTATAAT,0.191
35,ACCTCCGT,-0.0785
36,GTACGTTA,-0.00038
37,CACTTAAC,-0.104
38,GGGTCTTA,0.0557
39,CACGGCAC,-0.238
40,ACAATCAG,-0.0138
41,ACGCCAGT,-0.0887
42,ACCAACTC,-0.0268
43,CCAGAAAC,0.0115
44,AGTCTAAA,-0.0551
45,CTTATACC,0.0334
46,CTTCCGAC,-0.248
47,GGGGCCCC,0.267
48,GTTTCGTA,0.149

Going on with the list:

Row | Sequence | PBM E-score
76 | ACACCATG | -0.0445
77 | CCAAACAA | 0.0751
78 | CCTTGTAA | -0.00975
79 | ATTATTGC | 0.129
80 | CCGCCCGC | 0.207
81 | GATCAGAC | -0.0819
82 | AAGCCTCG | -0.043
83 | TAGATTAA | 0.112
84 | AGACTCTA | -0.177
85 | CGAGCGTC | -0.0434
86 | CCTTCGAA | 0.0667
87 | CCCGGCTC | -0.255
88 | ACACTAAT | 0.121
89 | CGGCTGTC | -0.1
90 | CCCCTGTA | 0.144
91 | CAATCAAA | 0.082
92 | AACAATCC | 0.241
93 | CTTCCATA | -0.275
94 | CAGGAAGG | -0.334
95 | CAGGTAGA | -0.127
96 | AGATGATG | 0.162
97 | ACCCCAGT | 0.129
98 | GTCGTTTA | -0.00227
99 | GGGGGGCA | -0.4
100 | GGCCGTTA | 0.0362

Row | Sequence | PBM E-score
101 | ACGGGCTG | -0.105
102 | AGTTAACG | 0.0671
103 | GGCTAGCC | -0.297
104 | TGACCCCA | 0.0468
105 | CAGTCTAA | 0.144
106 | TCGGTAGA | -0.0262
107 | AAAATCTT | -0.0461
108 | AGAGGGAG | -0.218
109 | CTTAGACC | -0.101
110 | ACAGTGAG | -0.0725
111 | ACCGGCAC | -0.0264
112 | GCTCACTA | -0.044
113 | CCTTCCAC | -0.103
114 | AATTACCT | 0.0249
115 | GGGCATTA | -0.0626
116 | CTTAGCTC | -0.107
117 | CCTCTTCC | -0.223
118 | ACTTGTAC | -0.0669
119 | ATGGTAGC | -0.0451
120 | GACGAACC | -0.0352
121 | GCCCAGTA | -0.0593
122 | TACCCTCA | 0.00099
123 | AGGGGCTC | -0.101
124 | CCAGCGCA | -0.0719
125 | GTTACAAA | 0.123

Row | Sequence | PBM E-score
126 | AAGGTACC | -0.124
127 | CGCGGTTC | 0.0879
128 | TAAGCGTA | -0.0836
129 | GAGGCACA | -0.0967
130 | AGGAGGCG | -0.208
131 | CTATATAG | 0.00641
132 | AGCCTGCA | 0.0137
133 | ATTGCCGA | -0.0437
134 | AGAATGGA | 0.121
135 | CTTCCCCA | -0.0627
136 | CCAATTTA | 0.185
137 | CCAGTAAC | 0.00285
138 | AACGCCTC | -0.295
139 | GGTGTACA | 0.0285
140 | CTAAAGTA | -0.124
141 | ACAACCTC | -0.107
142 | ACCCGTAG | -0.177
143 | CGCTTATC | -0.0744
144 | ATCGCAAG | 0.129
145 | CAGGGGCG | 0.252
146 | CATTGCGG | 0.0322
147 | CTGTGTGA | 0.141
148 | AACGACCT | -0.00677
149 | GCGTGTGA | -0.0144
150 | TTCATGAA | 0.0894

Row | Sequence | PBM E-score
151 | CAGCGCGA | 0.0812
152 | AGCGATCA | -0.156
153 | GGAGTAAC | -1e-05
154 | AGCATAGC | -0.0891
155 | GGTCTCTA | -0.00143
156 | CGCTACCG | -0.134
157 | GGTTGGTA | 0.0761
158 | GCATCCCA | -0.227
159 | AAAGCAGG | -0.0439
160 | TGCCGGCA | 0.00969
161 | CATGGGGG | -0.232
162 | GCCCCGAA | 0.21
163 | CAGCTCTA | -0.0327
164 | CTATGATA | 0.0584
165 | AAGTTCCG | 0.0754
166 | GTGCAGGA | -0.0538
167 | AAAAATCG | -0.0261
168 | AAGCTCCT | -0.22
169 | AAACGGGA | 0.144
170 | ACTTCTTA | 0.0859
171 | TACTGAGA | -0.0209
172 | CAATTTCG | 0.0322
